Consider one molecule from US6255089A (priority 1998, dated 2001).

Each structure is given as a SMILES string.

This assay deals with 5-HT2A cys→lys mutant receptor. The following applies: COS-7, 5-HT2A cys→lys receptor; inverse agonism.

As for `O=C(CCCN1CCC2(CC1)C(=O)NCN2c1ccccc1)c1ccc(F)cc1` [spiperone], the “decrease of the constitutive IP stimulation” value is on record as 58%.
